Binding data for 1 substance are collected here from article PMC2664925.

Protein sequences, listed by entry. Tags and fused reporters are not part of them.
UniProt P02795: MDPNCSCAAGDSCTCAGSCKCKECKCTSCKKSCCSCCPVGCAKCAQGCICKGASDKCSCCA
UniProt P62330: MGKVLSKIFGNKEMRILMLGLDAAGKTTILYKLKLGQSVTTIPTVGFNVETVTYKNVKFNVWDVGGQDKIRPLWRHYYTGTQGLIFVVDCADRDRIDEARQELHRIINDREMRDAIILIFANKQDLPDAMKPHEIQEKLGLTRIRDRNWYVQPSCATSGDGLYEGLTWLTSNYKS

No constants are given. Whether binding was seen depends on the method and setting. In cells and extracts the contact can be indirect. Some results given as binding are weak or reduced against the parent protein; the word gives no strength.

The assay concerns the target GST-MT-2 (UniProt P02795). Nature of the assay: pull-down; GST-MT-2 beads; about 450 µg of protein lysate of normal (GM05659) or NPC mutant fibroblasts (GM03123, GM17923, GM18436) per assay; immunoblot probed for ARF6; only the target purified. For orientation: A western blot detects proteins with antibodies after separation by electrophoresis.

With “ARF6 (endogenous, GTP-bound) (from UniProt P62330 1-175)”, the binding entry is recorded as “binds”.
